Values quoted from earlier work, collected in patent US8058395B2, “Chimeric protein comprising a green fluorescent ptotein fused to a transcription factor” (The United States of America as represented by the …, priority 1995, dated 2011).
At least one compound was matched to its structure with a doubt left.

Tested on: GR
Settings: cited from earlier work

CC#C[C@]1(O)CC[C@H]2[C@@H]3CCC4=CC(=O)CCC4=C3[C@@H](c3ccc(N(C)C)cc3)C[C@@]21C [RU486]
affinity for GR: high affinity
